The experiment addresses TLR2-Cer. Put plainly: FRET-FLIM in HeLa cells expressing the Cer fusion, Cy3-peptide 1 h.

No constants are given. Whether binding was seen depends on the method and setting.

B1: Cy3-9R34-ΔN (peptide)
peptide: RQIKIWFQNRRMKWKKALRLCLEERD
modifications: Cy3 label at the peptide N-terminus
With B1, the binding result is reported as “no binding (tested: 40 µM)”.

The record behind these values is patent US20210087231A1 (UNIVERSITY OF MARYLAND BALTIMORE, published 2021).
